Structures can show the parent of a compound that is named as a salt.
Biological target: immobilized human serum albumin (HSA) (Homo sapiens, UniProt P02768)
Assay: Drug-protein binding screening by HPLC on immobilized HSA column (HSA-HPLC)
Settings: reference compounds; Chiral-HSA 50 × 3 mm column, mobile phase 0.9% NaCl (pH 7.0), 0.5 mL/min, 100 µg/mL, 10 µL injected

Protein sequences, listed by entry. Tags and fused reporters are not part of them. Residues count along the entry.
UniProt P02768, 25-609: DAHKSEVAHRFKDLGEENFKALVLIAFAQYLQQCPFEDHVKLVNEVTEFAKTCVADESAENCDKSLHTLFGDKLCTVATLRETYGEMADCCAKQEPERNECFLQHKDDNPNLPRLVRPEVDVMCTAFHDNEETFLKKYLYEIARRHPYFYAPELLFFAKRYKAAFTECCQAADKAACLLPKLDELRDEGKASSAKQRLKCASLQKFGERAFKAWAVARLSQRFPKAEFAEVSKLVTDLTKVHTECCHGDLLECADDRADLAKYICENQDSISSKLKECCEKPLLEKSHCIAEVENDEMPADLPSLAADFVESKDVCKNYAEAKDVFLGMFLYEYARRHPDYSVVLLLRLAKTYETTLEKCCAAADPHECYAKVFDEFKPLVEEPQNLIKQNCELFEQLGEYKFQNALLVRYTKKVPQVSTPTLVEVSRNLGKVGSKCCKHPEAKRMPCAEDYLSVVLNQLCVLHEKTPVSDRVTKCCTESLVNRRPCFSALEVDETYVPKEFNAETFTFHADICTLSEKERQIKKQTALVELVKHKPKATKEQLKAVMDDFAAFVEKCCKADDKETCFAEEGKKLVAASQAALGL

| Compound | Retention time |
| --- | --- |
| CN(C)CCOC(c1ccccc1)c1ccccc1 [Diphenhydramine hydrochloride] | 6.23 min |
| Cc1cc(NS(=O)(=O)c2ccc(N)cc2)no1 [Sulfamethoxazole] | 3.68 min |
